# PMC8384837
# Substitutions are numbered along the chain they refer to. The list shows a part of the results. For some of these results: At the low end of the ranking the order means little.
# Legend:
# Settings in all cases: yeast three-hybrid, YBZ-1, SC-Leu-His + 0.5 mM 3-AT, 4 days
# [1] = target: T1, PUM1 PUF domain R6-YRS N1043Y + Y1044R + Q1047S (UniProt Q14671)
# T1 sequence: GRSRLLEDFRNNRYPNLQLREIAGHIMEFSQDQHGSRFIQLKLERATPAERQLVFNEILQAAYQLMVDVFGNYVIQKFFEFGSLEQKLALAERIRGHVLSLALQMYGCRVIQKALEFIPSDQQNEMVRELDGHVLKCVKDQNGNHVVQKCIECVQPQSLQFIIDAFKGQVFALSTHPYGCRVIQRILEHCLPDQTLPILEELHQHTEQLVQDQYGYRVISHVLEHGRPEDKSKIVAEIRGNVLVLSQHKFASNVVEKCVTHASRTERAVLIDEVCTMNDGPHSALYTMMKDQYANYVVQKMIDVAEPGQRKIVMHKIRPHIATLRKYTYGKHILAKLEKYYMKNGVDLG
# [2] = target: T2, PUM1 PUF domain R6-VWV N1043V + Y1044W + Q1047V (UniProt Q14671)
# T2 sequence: T1 sequence with Y216V, R217W, S220V
# [3] = target: T3, PUM1 PUF domain R6-VYG N1043V + Q1047G (UniProt Q14671)
# T3 sequence: T1 sequence with Y216V, R217Y, S220G
# [4] = target: T4, PUM1 PUF domain R6-VYL N1043V + Q1047L (UniProt Q14671)
# T4 sequence: T1 sequence with Y216V, R217Y, S220L
# [5] = target: T5, PUM1 PUF domain R6-WHR N1043W + Y1044H + Q1047R (UniProt Q14671)
# T5 sequence: T1 sequence with Y216W, R217H, S220R
# [6] = target: T6, PUM1 PUF domain R6-YWL N1043Y + Y1044W + Q1047L (UniProt Q14671)
# T6 sequence: T1 sequence with R217W, S220L
# [7] = target: T7, PUM1 PUF domain R6-WYG N1043W + Q1047G (UniProt Q14671)
# T7 sequence: T1 sequence with Y216W, R217Y, S220G
# [8] = target: T8, PUM1 PUF domain R6-WYR N1043W + Q1047R (Homo sapiens) (UniProt Q14671)
# T8 sequence: T1 sequence with Y216W, R217Y, S220R
# [9] = target: T9, PUM1 PUF domain R3-APS C935A + R936P + Q939S (Homo sapiens) (UniProt Q14671)
# T9 sequence: T1 sequence with C108A, R109P, Q112S, Y216N, R217Y, S220Q
# [10] = target: T10, PUM1 PUF domain R3-ASY C935A + R936S + Q939Y (UniProt Q14671)
# T10 sequence: T1 sequence with C108A, R109S, Q112Y, Y216N, R217Y, S220Q
# [11] = target: T11, PUM1 PUF domain R3-DRL C935D + Q939L (UniProt Q14671)
# T11 sequence: T1 sequence with C108D, Q112L, Y216N, R217Y, S220Q
# [12] = target: T12, PUM1 PUF domain R3-ESL C935E + R936S + Q939L (UniProt Q14671)
# T12 sequence: T1 sequence with C108E, R109S, Q112L, Y216N, R217Y, S220Q
# [13] = target: T13, PUM1 PUF domain R3-GFF C935G + R936F + Q939F (Homo sapiens) (UniProt Q14671)
# T13 sequence: T1 sequence with C108G, R109F, Q112F, Y216N, R217Y, S220Q
# [14] = target: T14, PUM1 PUF domain R3-TGQ C935T + R936G (UniProt Q14671)
# T14 sequence: T1 sequence with C108T, R109G, Y216N, R217Y, S220Q
# [15] = target: T15, PUM1 PUF domain R3-TRG C935T + Q939G (Homo sapiens) (UniProt Q14671)
# T15 sequence: T1 sequence with C108T, Q112G, Y216N, R217Y, S220Q
# [16] = target: T16, PUM1 PUF domain R3-VHW C935V + R936H + Q939W (Homo sapiens) (UniProt Q14671)
# T16 sequence: T1 sequence with C108V, R109H, Q112W, Y216N, R217Y, S220Q
# [17] = target: T17, PUM1 PUF domain R3-VRD C935V + Q939D (Homo sapiens) (UniProt Q14671)
# T17 sequence: T1 sequence with C108V, Q112D, Y216N, R217Y, S220Q
# [18] = target: T18, PUM1 PUF domain R3-VRH C935V + Q939H (UniProt Q14671)
# T18 sequence: T1 sequence with C108V, Q112H, Y216N, R217Y, S220Q
# [19] = target: T19, PUM1 PUF domain R3-VRN C935V + Q939N (Homo sapiens) (UniProt Q14671)
# T19 sequence: T1 sequence with C108V, Q112N, Y216N, R217Y, S220Q
# [20] = target: T20, PUM1 PUF domain R3-VRW C935V + Q939W (UniProt Q14671)
# T20 sequence: T1 sequence with C108V, Q112W, Y216N, R217Y, S220Q
sequence,measurement,setting,value
GGCUAGAACUAGUGGAUCCCCCGGCGCCCGGCGGCUCGAGCCCGGGUAAGUGUAAAUAGUCUGCAUGCCGCCGGGCGCCAUGCCUGCAGGUCGACUCUAGAAAACAUG,binding signal (log2 enrichment (interaction score)),[1],-6.97
GGCUAGAACUAGUGGAUCCCCCGGCGCCCGGCGGCUCGAGCCCGGGUAAGUGGAAAUAGUCUGCAUGCCGCCGGGCGCCAUGCCUGCAGGUCGACUCUAGAAAACAUG,binding signal (log2 enrichment (interaction score)),[2],< -6.62
same,binding signal (log2 enrichment (interaction score)),[3],< -6.45
same,binding signal (log2 enrichment (interaction score)),[4],< -7.79
same,binding signal (log2 enrichment (interaction score)),[5],< -8.7
same,binding signal (log2 enrichment (interaction score)),[6],-6.89
GGCUAGAACUAGUGGAUCCCCCGGCGCCCGGCGGCUCGAGCCCGGGUAAGUGAAAAUAGUCUGCAUGCCGCCGGGCGCCAUGCCUGCAGGUCGACUCUAGAAAACAUG,binding signal (log2 enrichment (interaction score)),[7],-6.77
same,binding signal (log2 enrichment (interaction score)),[8],-0.26
GGCUAGAACUAGUGGAUCCCCCGGCGCCCGGCGGCUCGAGCCCGGGUAAGUGUAAGUAGUCUGCAUGCCGCCGGGCGCCAUGCCUGCAGGUCGACUCUAGAAAACAUG,binding signal (log2 enrichment (interaction score)),[9],-1.88
same,binding signal (log2 enrichment (interaction score)),[10],< -8.15
same,binding signal (log2 enrichment (interaction score)),[11],< -8.1
same,binding signal (log2 enrichment (interaction score)),[12],< -10.1
same,binding signal (log2 enrichment (interaction score)),[13],-0.66
same,binding signal (log2 enrichment (interaction score)),[14],< -8.07
same,binding signal (log2 enrichment (interaction score)),[15],0.09
same,binding signal (log2 enrichment (interaction score)),[16],-0.22
same,binding signal (log2 enrichment (interaction score)),[17],-0.71
same,binding signal (log2 enrichment (interaction score)),[18],-6.99
same,binding signal (log2 enrichment (interaction score)),[19],-1.7
same,binding signal (log2 enrichment (interaction score)),[20],-5.08
GGCUAGAACUAGUGGAUCCCCCGGCGCCCGGCGGCUCGAGCCCGGGUAAGUGUAAUUAGUCUGCAUGCCGCCGGGCGCCAUGCCUGCAGGUCGACUCUAGAAAACAUG,binding signal (log2 enrichment (interaction score)),[9],0.63
same,binding signal (log2 enrichment (interaction score)),[10],< -7.89
same,binding signal (log2 enrichment (interaction score)),[11],-2.17
same,binding signal (log2 enrichment (interaction score)),[12],-3.43
same,binding signal (log2 enrichment (interaction score)),[13],-0.57
same,binding signal (log2 enrichment (interaction score)),[14],< -8.28
same,binding signal (log2 enrichment (interaction score)),[15],-0.34
same,binding signal (log2 enrichment (interaction score)),[16],0.09
same,binding signal (log2 enrichment (interaction score)),[17],-1.7
same,binding signal (log2 enrichment (interaction score)),[18],-2.75
same,binding signal (log2 enrichment (interaction score)),[19],-0.24
same,binding signal (log2 enrichment (interaction score)),[20],-2.14
GGCUAGAACUAGUGGAUCCCCCGGCGCCCGGCGGCUCGAGCCCGGGUAAGUGCAAAUAGUCUGCAUGCCGCCGGGCGCCAUGCCUGCAGGUCGACUCUAGAAAACAUG,binding signal (log2 enrichment (interaction score)),[2],< -8.44
same,binding signal (log2 enrichment (interaction score)),[3],< -8.45
same,binding signal (log2 enrichment (interaction score)),[4],< -7.25
same,binding signal (log2 enrichment (interaction score)),[5],< -7.38
same,binding signal (log2 enrichment (interaction score)),[7],< -7.6
same,binding signal (log2 enrichment (interaction score)),[8],-1.46
same,binding signal (log2 enrichment (interaction score)),[1],< -7.99
same,binding signal (log2 enrichment (interaction score)),[6],-4.63

# 2 neighbouring entries already listed:
sequence,measurement,setting,value
GGCUAGAACUAGUGGAUCCCCCGGCGCCCGGCGGCUCGAGCCCGGGUAAGUGCAAAUAGUCUGCAUGCCGCCGGGCGCCAUGCCUGCAGGUCGACUCUAGAAAACAUG,binding signal (log2 enrichment (interaction score)),[4],< -7.25
same,binding signal (log2 enrichment (interaction score)),[5],< -7.38
